Results deposited as PubChem BioAssay AID1508597 (Cure First, 2020).

- Screen: 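Genes whose silencing sensitises or protects ovarian cancer cells against rucaparib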 (primary screen)
- Cells: human ovarian carcinoma lines grown from tumours: OCI-P5x (papillary serous) and OCI-C5x (clear cell)
- Knock-down reagent: siRNA pool against human genes, 1.25 pmol siRNA per well
- Duration: 72 h or 96 h, depending on the cell culture
- Treatment: rucaparib 20 µM (about IC30) or vehicle, present until read-out
- Rucaparib or vehicle: Vehicle
- Cell line: OCI-C5x (clear cell)
- Measured: 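ATP luminescence measured at 72 or 96 h according to the culture, then normalised and expressed as percent viability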
- Direction: viability, normalised: higher = more viable cells remaining
- Call rule: 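a well counts as a hit if its normalised viability is under 80 percent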
- Calls: active = viability under 80%; inactive = viability 80% or more
This is an unselected part of the about 2,100 reagents, under one of the conditions tested. 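Calls flag viability under 80% in either arm, not effects specific to rucaparib; the reference for percent is not stated.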 A reagent listed more than once was tested more than once; the source does not tell the runs apart. Not given: the 100% reference.

Gene	PubChem SID	technical replicate	viability, normalised (%)	call
EPC1	SID405526759	1	54.4	active
EPC1	SID405526759	2	63.1	active
EPC1	SID405526759	3	71.4	active
LHCGR	SID405526954	1	48.7	active
LHCGR	SID405526954	2	56.6	active
LHCGR	SID405526954	3	51.9	active
UBN1	SID405526602	1	27.8	active
UBN1	SID405526602	2	32.1	active
UBN1	SID405526602	3	43.7	active
CDKL2	SID405527489	1	102	inactive
CDKL2	SID405527489	2	70.2	active
CDKL2	SID405527489	3	66.2	active
PAK4	SID405527568	1	62.5	active
PAK4	SID405527568	2	63.7	active
PAK4	SID405527568	3	65.5	active
DYRK1B	SID405527423	1	29	active
DYRK1B	SID405527423	2	29.3	active
DYRK1B	SID405527423	3	35.7	active
PHF8	SID405527158	1	54.6	active
PHF8	SID405527158	2	55.4	active
PHF8	SID405527158	3	44.9	active
PRPF19	SID405527208	1	39	active
PRPF19	SID405527208	1	26.1	active
PRPF19	SID405527208	2	32.2	active
PRPF19	SID405527208	2	43.3	active
PRPF19	SID405527208	3	44.6	active
PRPF19	SID405527208	3	26.6	active

Copied from the entries so far, 3 entries:
Gene	PubChem SID	technical replicate	viability, normalised (%)	call
PHF8	SID405527158	1	54.6	active
PHF8	SID405527158	2	55.4	active
PHF8	SID405527158	3	44.9	active

More entries follow:
Gene	PubChem SID	technical replicate	viability, normalised (%)	call
SNRK	SID405527920	1	44.2	active
SNRK	SID405527920	2	62.2	active
SNRK	SID405527920	3	43.7	active
NDC80	SID405528496	1	55.5	active
NDC80	SID405528496	2	46.5	active
NDC80	SID405528496	3	34.1	active
PDE8A	SID405526702	1	51.3	active
PDE8A	SID405526702	2	77.8	active
PDE8A	SID405526702	3	71.9	active
RAD54L2	SID405527224	1	38.4	active
RAD54L2	SID405527224	2	43.3	active
RAD54L2	SID405527224	3	61.2	active
CLK4	SID405527745	1	72	active
CLK4	SID405527745	2	55.9	active
CLK4	SID405527745	3	54.4	active
GFI1B	SID405526813	1	35.4	active
GFI1B	SID405526813	2	42.8	active
GFI1B	SID405526813	3	53.7	active
AGO4	SID405527957	1	28	active
AGO4	SID405527957	2	34	active
AGO4	SID405527957	3	22.9	active
DHX29	SID405528211	1	44.7	active
DHX29	SID405528211	2	63	active
DHX29	SID405528211	3	47.1	active
ATP7A	SID405528002	1	32	active
ATP7A	SID405528002	2	34.2	active
ATP7A	SID405528002	3	41.3	active
RPS6KA2	SID405527472	1	66.2	active
RPS6KA2	SID405527472	2	53.8	active
RPS6KA2	SID405527472	3	58.5	active
BBS7	SID405528021	1	29.4	active
BBS7	SID405528021	2	48.9	active
BBS7	SID405528021	3	51.8	active
TDP2	SID405526725	1	57.9	active
TDP2	SID405526725	1	45.7	active
TDP2	SID405526725	2	48.4	active
TDP2	SID405526725	2	40.6	active
TDP2	SID405526725	3	42.7	active
TDP2	SID405526725	3	46.3	active
BCL6	SID405528026	1	44.3	active
BCL6	SID405528026	2	40.4	active
BCL6	SID405528026	3	30.2	active
DPH7	SID405526625	1	55.3	active
DPH7	SID405526625	2	68.7	active
DPH7	SID405526625	3	57.8	active
FOXA1	SID405526792	1	51	active
FOXA1	SID405526792	2	51.2	active
FOXA1	SID405526792	3	52.7	active
